{
  "source": "patent US20100113392A1",
  "about": "“METHODS OF USING SAHA AND BORTEZOMIB FOR TREATING MULTIPLE MYELOMA” (priority 2006, published 2010)",
  "origin": "cited, not measured here",
  "system": "carcinogen-induced (N-methylnitrosourea) mammary tumors",
  "details": "rats, SAHA in diet over the 130 days of the study; cited from earlier work",
  "data": [
    {"smiles": "O=C(CCCCCCC(=O)Nc1ccccc1)NO", "note": "[Vorinostat, N-Hydroxy-N′-phenyl octanediamide]", "values": [
      {"measurement": "inhibition of development and growth of mammary tumors", "value": "effective at inhibiting the development and continued growth"}
    ]}
  ]
}
